# From patent publication US20210069351A1, “METHOD FOR SCREENING PAIN INHIBITING SUBSTANCE” (priority 2017, published 2021)
# Test: In vitro microdialysis, recovery rate of CMA 7 microdialysis probe
# Settings: flow rate 1.0 ul/min, 30 min
# [1] = actual concentration 50 ng/mL in aCSF
# [2] = actual concentration 1000 ng/mL in aCSF
# [3] = actual concentration 5000 ng/mL in aCSF
# [4] = actual concentration 8000 ng/mL in aCSF
SMILES,microdialysate concentration (actual concentration 10 ng/mL in aCSF) [ng/mL],microdialysate concentration [1] [ng/mL],microdialysate concentration [2] [ng/mL],microdialysate concentration [3] [ng/mL],microdialysate concentration [4],microdialysate concentration (actual concentration 100 ng/mL in aCSF) [ng/mL]
"NCCCC(=O)O [GABA, γ-aminobutyric acid]",2.0,15.0,189.0,900.0,"1,480.0 ng/mL",–
"N[C@@H](CCC(=O)O)C(=O)O [Glutamate, glutamate]",–,1.0,50.0,199.0,317.0 ng/mL,3.9
